# Experimental data as given in PubChem BioAssay AID2685 (National Center for Advancing Translational Sciences (NCATS), 2010).
# Among all 320,000 compounds or so, about 2,100 (0.66%) were called active. This list was built around the results that the source calls inconclusive (neither active nor inactive); the mix of calls is not that of the screen. Calls follow the shape of the dose curve; as a rule, active = well fitted inhibition curve with a large enough effect in the signal ratio, with a control signal flat (not every such curve was filed as active); inconclusive = small, poorly fitted or top-dose-only effect, or effect the other way, or a change in a side signal; inactive = flat fitted curve, though single readings scatter; the % refers to the signal ratio. Potencies of inconclusive entries are doubtful fits and often do not repeat.
# Experiment: qHTS Assay for Lipid Storage Modulators in Drosophila S3 Cells
# Conditions: BODIPY lipid droplet fluorescence, 18-24 h, cells fed with added oleic acid; lipid storage change, negative = inhibition: at 46.1 µM (top of the series) unless noted
# In short: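 Laser-scanning cytometry quantifies lipid droplet accumulation (500–530 nm total intensity; droplet/cell object ratio) in oleic acid-fed (400 uM added) Drosophila S3 cells treated with a concentration series. 20 uM Triacsin C defined 100% inhibition.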
# % is scaled to controls: 0 for no effect and ±100 for the full control effect; potency is read from the fitted curve at half-maximal effect.
SMILES,"lipid storage change, negative = inhibition",Potency
CC(=O)NCc1ccc(C(=O)CN2C(=O)NC3(CCCCC3C)C2=O)s1 (stereo unspecified),inconclusive: 8.85%,
COc1ccccc1NC(=O)CN1CCOCC1,inactive,
N#Cc1ccc(OCC(=O)N/N=C/C2CC=CCC2)cc1 (stereo unspecified),inactive,
CCNCCNC(=O)c1c(O)c2cccc3c2n(c1=O)CCC3,,"inconclusive: 2.91 µM [activator, single point]"
Cc1ccnc(NC(=O)c2cccc([N+](=O)[O-])c2C)c1,inconclusive: 1.51%,
CCOC(=O)CSc1nc(C)cc(C)n1,,active: 23.1 µM
COc1ccc(C(=O)n2ncc(C#N)c2N)cc1,inconclusive: 9.37%,
COCc1c(C(=O)N2CCN(Cc3nc4ccccc4s3)CC2)oc2ccccc12,,"inconclusive: 0.0517 µM [falling, full curve, poor fit]"
Cc1cc(C)c(C#N)c(N2CCN(c3ccccc3)CC2)n1,inconclusive: 18.3%,
COc1cccc(NC(=O)c2ccc3nsnc3c2)c1,inconclusive: -53.6%,
Cc1c(Cl)cccc1NC(=O)[C@@H](NC(=O)c1ccccc1Cl)C(C)C,,"inconclusive: 0.731 µM [activator, partial curve, poor fit]"
Cc1ccccc1SCC(=O)Nc1cc(C(F)(F)F)ccc1N1CCOCC1,,"inconclusive: 1.3 µM [activator, full curve]"
COc1ccc2cc(CN(CC3CCCO3)C(=O)Nc3ccccc3OC)c(=O)[nH]c2c1 (stereo unspecified),inconclusive: 18%,
COCC(N)(c1ccccc1)c1nc2ccccc2n1C (stereo unspecified),inconclusive: 56.3% [activator],
CCN(CC)S(=O)(=O)c1ccc(C(=O)Nc2nnc(COC)o2)cc1,inconclusive: -2.62%,
Cc1ccc(NC(=O)CSC2=C(C#N)C(c3ccco3)C3=C(CC(C)(C)CC3=O)N2)cc1 (stereo unspecified),,"inconclusive: 1.84 µM [activator, partial curve]"
Cn1cc([N+](=O)[O-])c(C(=O)Nc2ccc(Br)cn2)n1,inactive,
Cc1ccc(S(=O)(=O)N2CCN(C(=O)c3ccccc3-c3nc4ccccc4s3)CC2)c(C)c1,inconclusive,
O=C(c1ccccc1)N1CCN(c2nc3ccc([N+](=O)[O-])cc3s2)CC1,inconclusive: 1.19%,
COc1ccc(CNC(=O)c2cccc(NC3=NC4CS(=O)(=O)CC4S3)c2)cc1 (stereo unspecified),,"inconclusive: 9.2 µM [activator, partial curve]"
Cc1cc(C(=O)N/N=C/c2cccc([N+](=O)[O-])c2)c2ccccc2n1,inconclusive: 19.3%,

SMILES,"lipid storage change, negative = inhibition",Potency
CCOC(=O)C1=C(c2ccccc2)NC(=O)NC1c1ccc(OCC#N)c(OC)c1 (stereo unspecified),inconclusive: 39%,
COc1ccccc1CNC(=O)C1CCCN(S(=O)(=O)c2cnc[nH]2)C1 (stereo unspecified),inactive,
O=C(O)c1ccc2c(c1)S(=O)(=O)c1ccccc1C2=O,inconclusive: -11.8%,
COc1cc(/C=N\NC(=O)c2ccc(C)nc2)ccc1OC(=O)c1cccc(F)c1,,"inconclusive: 29.1 µM [rising, single point]"
Cc1cc(NC(=O)c2ccccc2Cl)ccc1NC(=O)c1ccccc1Cl,inconclusive: 22.4%,
Cn1/c(=N/N=C/c2ccc(N3CCOCC3)cc2)sc2ccccc21,inconclusive: 20.1%,
O=C(Nc1nncs1)c1ccccc1Br,,active: 32.6 µM
COc1ccc(C(=O)CSC2=NS(=O)(=O)c3cc(Cl)ccc3N2)cc1,inconclusive,
O=C(Nc1ccc2c3c(cccc13)CC2)c1ccco1,inconclusive: 25.9%,
O=C(CSC(=S)N1CCOCC1)Nc1nccs1,inconclusive: 0.869%,
Cn1c(SCC(=O)NCc2ccccc2)nc2c([nH]c3ccccc32)c1=O,inconclusive: 16.3% [at 9.22 µM],
CCOc1ccc(-c2c(C(=O)N/N=C/c3ccc(OC)cc3)nnn2-c2nonc2N)cc1,,"inconclusive: 0.231 µM [activator, single point]"
CCOc1ccc(C2(C)CC(=O)N(C)C2=O)cc1 (stereo unspecified),,"inconclusive: 29.1 µM [activator, single point]"
COc1ccc(O[C@@H]2O[C@H](COC(C)=O)[C@@H](OC(C)=O)[C@H](OC(C)=O)[C@H]2NC(C)=O)cc1,inconclusive: 4.88%,
CC(=O)Nc1cccc(C(=O)/C=C/c2ccco2)c1,,"inconclusive: 23.1 µM [falling, partial curve, poor fit]"
CCCNC(=O)COc1ccc(S(=O)(=O)Nc2ccc(C)cc2)cc1,inconclusive: 174%,
CSCCC(NC(=O)COc1ccccc1)C(=O)N(C)Cc1ccc(F)cc1 (stereo unspecified),inconclusive: 4.31%,
O=C(COC(=O)c1n[nH]c(=O)c2ccccc12)Nc1ccccc1,inconclusive,
O=CN1CCN(C(=O)c2ccc3c(c2)OCO3)CC1,inconclusive: 18.9%,
CC1CCN(S(=O)(=O)c2ccc(C(C)C)cc2)CC1,inconclusive: -15.5%,
O=C(N/N=C/c1ccc(OC(=O)c2ccccc2)cc1)c1cccc(O)c1,inconclusive: -7.8%,

# 19 entries from above, reformatted:
SMILES | lipid storage change, negative = inhibition | Potency
Cc1cc(C(=O)N/N=C/c2cccc([N+](=O)[O-])c2)c2ccccc2n1 | inconclusive: 19.3% | 
CCOC(=O)C1=C(c2ccccc2)NC(=O)NC1c1ccc(OCC#N)c(OC)c1 (stereo unspecified) | inconclusive: 39% | 
COc1ccccc1CNC(=O)C1CCCN(S(=O)(=O)c2cnc[nH]2)C1 (stereo unspecified) | inactive | 
COc1cc(/C=N\NC(=O)c2ccc(C)nc2)ccc1OC(=O)c1cccc(F)c1 |  | inconclusive: 29.1 µM [rising, single point]
Cc1cc(NC(=O)c2ccccc2Cl)ccc1NC(=O)c1ccccc1Cl | inconclusive: 22.4% | 
Cn1/c(=N/N=C/c2ccc(N3CCOCC3)cc2)sc2ccccc21 | inconclusive: 20.1% | 
O=C(Nc1nncs1)c1ccccc1Br |  | active: 32.6 µM
COc1ccc(C(=O)CSC2=NS(=O)(=O)c3cc(Cl)ccc3N2)cc1 | inconclusive | 
O=C(Nc1ccc2c3c(cccc13)CC2)c1ccco1 | inconclusive: 25.9% | 
O=C(CSC(=S)N1CCOCC1)Nc1nccs1 | inconclusive: 0.869% | 
Cn1c(SCC(=O)NCc2ccccc2)nc2c([nH]c3ccccc32)c1=O | inconclusive: 16.3% [at 9.22 µM] | 
CCOc1ccc(-c2c(C(=O)N/N=C/c3ccc(OC)cc3)nnn2-c2nonc2N)cc1 |  | inconclusive: 0.231 µM [activator, single point]
COc1ccc(O[C@@H]2O[C@H](COC(C)=O)[C@@H](OC(C)=O)[C@H](OC(C)=O)[C@H]2NC(C)=O)cc1 | inconclusive: 4.88% | 
CCCNC(=O)COc1ccc(S(=O)(=O)Nc2ccc(C)cc2)cc1 | inconclusive: 174% | 
CSCCC(NC(=O)COc1ccccc1)C(=O)N(C)Cc1ccc(F)cc1 (stereo unspecified) | inconclusive: 4.31% | 
O=C(COC(=O)c1n[nH]c(=O)c2ccccc12)Nc1ccccc1 | inconclusive | 
O=CN1CCN(C(=O)c2ccc3c(c2)OCO3)CC1 | inconclusive: 18.9% | 
CC1CCN(S(=O)(=O)c2ccc(C(C)C)cc2)CC1 | inconclusive: -15.5% | 
O=C(N/N=C/c1ccc(OC(=O)c2ccccc2)cc1)c1cccc(O)c1 | inconclusive: -7.8% | 

# (continued)

SMILES,"lipid storage change, negative = inhibition",Potency
COc1cc(OC)c2c(C)cc(=O)oc2c1C(CCN1CCOCC1)c1ccc2c(c1)OCO2 (stereo unspecified),inconclusive: 19.2%,
CCCOc1ccc(NC(=O)CC2Nc3ccccc3NC2=O)cc1 (stereo unspecified),inconclusive: 23.7%,
O=C(O)CN1C(=O)/C(=C\c2cccc(OCc3ccc(F)cc3)c2)SC1=S,inconclusive: 24.7%,
CC(Oc1ccc(Cl)cc1Cl)C(=O)NC1CCSC1=O (stereo unspecified),inconclusive: 12.5%,
O=C(COC(=O)c1cc([N+](=O)[O-])ccc1N1CCOCC1)Nc1ccc(Cl)cn1,inconclusive: -28.7%,
Cc1ccc(OCc2ccc(C(=O)NCC3CCCO3)cc2)cc1C (stereo unspecified),,active: 10.3 µM
CCOC(=O)c1ccc(NC(=O)c2nc[nH]c2C(=O)N2CCN(C(=O)OC(C)(C)C)CC2)cc1,inconclusive: 10.8%,
CC(=O)c1ccc(-c2cccc(-c3nc4ccccn4c3NC3CCCCC3)c2)cc1,inconclusive: -31.2%,
O=C(O)c1cc(=O)c2ccccc2[nH]1,inconclusive: -3.59%,
C=CCn1c(=S)[nH]c2cc(C(=O)Nc3ccc(F)cc3)ccc2c1=O,,"inconclusive: 29.1 µM [falling, single point]"
Cc1cccc(C)c1NC(=O)NCc1ccco1,inconclusive: 5.28%,
CCCc1nnc(NC(=O)CCC(=O)N2CCCCC2CC)s1 (stereo unspecified),inconclusive: 4.15%,
CCN1CCN(Cc2ccc(NC(=O)c3ccc(C)c(NC(=O)N4CCNC4=O)c3)cc2C(F)(F)F)CC1,,"inconclusive: 23.1 µM [activator, partial curve]"
CC(=O)C1C(c2ccc(Cl)cc2)c2c(noc2C)CC1(C)O (stereo unspecified),inconclusive: 19.1%,
O=C(NC1CCCCC1)C(=S)NCc1ccccc1,,"inconclusive: 16.4 µM [activator, single point]"
COc1ccccc1NC(=O)NC1CCCCCCC1,inconclusive: 26.9%,
CCC(CO)n1c(SCc2cc(=O)oc3cc(C)ccc23)nc2ccccc2c1=O (stereo unspecified),inconclusive: 15.5%,
O=C(NCCCc1ccccc1)c1ccc([N+](=O)[O-])cc1Cl,inconclusive: 28.6%,
Cc1ncc(CO)c(/C=N/NC(=O)c2ccc(O)cc2)c1O,inactive,
CCc1oc2ccccc2c1C(=O)CCN1CCCCC1,inconclusive: -0.176%,
COc1ccccc1NC(=O)Nc1ccc(C(N)=O)cc1,,"inconclusive: 4.61 µM [falling, full curve, poor fit]"

SMILES,"lipid storage change, negative = inhibition",Potency
COc1ccc(S(=O)(=O)NCc2ccccn2)cc1Br,,"inconclusive: 29.1 µM [activator, single point]"
O=C(N/N=C/c1ccc([N+](=O)[O-])s1)c1ccccc1Br,,"inconclusive: 32.6 µM [falling, single point]"
Cc1ccc(NC(=O)COC(=O)c2cc(=O)c3ccccc3o2)cc1F,inconclusive: 9.4%,
Cc1ccc(OCCNC(=O)C2CC(=O)N(Cc3ccccc3)C2)cc1 (stereo unspecified),inconclusive: 3.97%,
CNCCOc1ccccc1C(C)(C)C,inconclusive: 37.2%,
COCCN1Cc2cccc(C(=O)Nc3cccc(-c4nc5ccccc5[nH]4)c3)c2C1=O,inconclusive: -17.8%,
Cc1ccccc1Nc1nc(N)nc(CSc2nc3ccccc3c(=O)n2C)n1,,"inconclusive: 0.92 µM [activator, partial curve, poor fit]"
CC1(C)CC2CC(C)(CN2C(=O)c2ccc([N+](=O)[O-])cc2)C1 (stereo unspecified),inconclusive: -24.3%,
NC(=S)c1ccc(C(N)=S)o1,,"inconclusive: 0.731 µM [cytotoxic, full curve]"
O=C(OCc1nnc(-c2ccc(Br)cc2)o1)c1ccco1,,"inconclusive: 23.1 µM [activator, single point]"
CC1(C)CCC[C@@]2(C)CC=C(C(=O)O)[C@@H]3C[C@]312,inconclusive: -9.1%,
COc1ccccc1C1/C(=C(/O)c2ccccc2)C(=O)C(=O)N1CCO (stereo unspecified),inconclusive: 57.4%,
CCCCN(C(=O)C1CCC1)c1c(N)n(Cc2ccccc2)c(=O)[nH]c1=O,,"inconclusive: 29.1 µM [activator, single point]"
COc1ccc(C(=O)N2CCCC(N3CCN(c4ccccc4OC)CC3)C2)c(OC)n1 (stereo unspecified),,"inconclusive: 29.1 µM [falling, single point]"
CCN1CCN(S(=O)(=O)c2ccc(S(=O)(=O)NC3CC3)cc2)CC1,inconclusive: -71.1%,
COCCN1Cc2cccc(C(=O)NCc3ccccc3OC)c2C1=O,inconclusive: 17.8%,
O=C(Nc1cccc(S(=O)(=O)NC2=NCCC2)c1)c1cnc(Cl)c(Cl)c1,inconclusive: -29.2%,
CCOc1ccc(C(=O)NCCn2cc(SCC(=O)Nc3cc(C)on3)c3ccccc32)cc1,,"inconclusive: 3.66 µM [falling, full curve, poor fit]"
